PubChem BioAssay AID1259308, NCATS – 2017
The whole screen tested about 59,000 reagents; below is a part drawn at random. About 1,510 of all reagents (2.6%) were called active. 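Calls use total luciferase alone and ignore viability, so some active siRNAs may act by altering cell number.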 Entries without a mark were called inactive. Reagents against one gene are numbered here. Further read-outs or replicates are left out here.

Assay: 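Genes whose loss raises luciferase production in HEK293 cells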 (primary screen)
Cells: human HEK293 embryonic kidney cells stably expressing firefly luciferase (HEK-CMV-Luc2-Hygro)
Reagents: single siRNA against human genes, 0.8 pmol siRNA per well
Time to read-out: 72 h
Detection: 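Reporter luminescence and viable-cell signal on separate replicate plates, given as percent of non-targeting control and median/MAD z-scores, plus per-cell luciferase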
Scale: total luciferase, z-score and total luciferase, % of control: higher = more reporter protein produced
Rule for the call: 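Active when the median/MAD z-score for overall luciferase is greater than 3; a gene was taken forward for validation with new siRNAs if at least two of its three siRNAs passed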
Calls: active = raised luciferase; inactive = no rise

EIF3I (eukaryotic translation initiation factor 3 subunit I) #1 showed total luciferase, z-score -2.53; total luciferase, % of control 31.5.
Against EIF3I (eukaryotic translation initiation factor 3 subunit I) #2, the entry reads total luciferase, z-score -2.77; total luciferase, % of control 26.8.
After knock-down of EIF3I (eukaryotic translation initiation factor 3 subunit I) #3, the record shows total luciferase, z-score -2.25; total luciferase, % of control 37.2.
Depletion of ZNF487 (zinc finger protein 487) #1 resulted in: total luciferase, z-score 0.406; total luciferase, % of control 90.
After knock-down of ZNF487 (zinc finger protein 487) #2, the record shows total luciferase, z-score -0.0906; total luciferase, % of control 80.1.
Depletion of ZNF487 (zinc finger protein 487) #3 came out at: total luciferase, z-score 1.09; total luciferase, % of control 103.

Entries above whose target name begins with Z or z (3):
ZNF487 (zinc finger protein 487) #1 → total luciferase, z-score = 0.406; total luciferase, % of control = 90
ZNF487 (zinc finger protein 487) #2 → total luciferase, z-score = -0.0906; total luciferase, % of control = 80.1
ZNF487 (zinc finger protein 487) #3 → total luciferase, z-score = 1.09; total luciferase, % of control = 103

Further results:
Silencing of STRA6 (signaling receptor and transporter of retinol STRA6) #1 resulted in: total luciferase, z-score 1.51; total luciferase, % of control 112.
After knock-down of STRA6 (signaling receptor and transporter of retinol STRA6) #2, the screen gave total luciferase, z-score 0.213; total luciferase, % of control 86.1.
Silencing of STRA6 (signaling receptor and transporter of retinol STRA6) #3 gave: total luciferase, z-score -0.263; total luciferase, % of control 76.7.
Against PGP (phosphoglycolate phosphatase) #1 the deposit lists total luciferase, z-score -1.16; total luciferase, % of control 58.9.
For PGP (phosphoglycolate phosphatase) #2, the values are total luciferase, z-score 0.877; total luciferase, % of control 99.3.
PGP (phosphoglycolate phosphatase) #3 scored total luciferase, z-score 0.566; total luciferase, % of control 93.1.
